Experimental data: PubChem BioAssay AID1671195 (Yale University, 2021)
This is a random part of about 22,000 deposited reagents. About 1,510 of all reagents (6.9%) were called active. 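Active includes knockdowns raising or lowering LDL uptake; positive z-scores mean more uptake, negative mean less.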 Entries without a mark were called inactive.

- Purpose: 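Genes whose knockdown alters LDL uptake in liver cancer cells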 (primary screen)
- Cell system: human Huh7 hepatoma cells
- Reagents: siRNA pool against human genes, 18 nM
- Timing: about 2 to 2.5 days of knockdown, then 8 h LDL uptake
- Conditions: DiI-labelled LDL at 30 µg/ml for 8 h, in lipoprotein-deficient serum medium
- Measured: 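Per-cell DiI-LDL intensity by automated imaging; well means scaled to the plate median and given as a robust z-score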
- Reading the numbers: robust z-score: higher = more LDL uptake after knockdown
- Rule for the call: 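a gene counts as active if at least two replicate z-scores exceed ±2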

target gene | robust z-score, replicate 1 | robust z-score, replicate 2 | robust z-score, replicate 3
DDX31 (DEAD-box helicase 31) | -0.762 | -0.0208 | 0.0119
GKN2 (gastrokine 2) | -0.943 | -1.68 | -1.17
LOC441745 (retired record) | -0.186 | -0.182 | -0.132
EEF1DP2 | 1.86 | 1.55 | 1.17
HIBADH (3-hydroxyisobutyrate dehydrogenase) | 0.0219 | -0.439 | -0.304
TRMT61B (tRNA methyltransferase 61B) | -1.81 | -0.134 | -1.18
LINC01000 (long independently transcribed non-coding RNA 1000) | 1.42 | 1.52 | 2.9
GFRA2 (GDNF family receptor alpha 2) | 0.0269 | 0.95 | 0.474
SPOCK1 | -0.544 | 0.473 | -0.448
ERP29 (endoplasmic reticulum protein 29) | -1.95 (active) | -0.663 | -2.28
LOC440765 (retired record) | 2.92 (active) | 2.58 | 2.66
ZNF341 (zinc finger protein 341) | 1.09 | 1.03 | 0.724
ZNF578 (zinc finger protein 578) | -1.74 | -1.36 | -1.66
RPS2P27 (ribosomal protein S2 pseudogene 27) | 0.466 | 0.475 | 0.11
GAB1 (GRB2 associated binding protein 1) | 1.19 | 0.327 | 0.616
OR6C6 (olfactory receptor family 6 subfamily C member 6) | -1.36 | -1.19 | -1.15
LSP1 (lymphocyte specific protein 1) | -0.49 | -0.113 | -0.481
CLPP | -0.741 | -0.171 | -0.263
ANGPT2 (angiopoietin 2) | -1.29 | -0.312 | -0.687
FLJ43870 (retired record) | -0.367 | 0.235 | 0.0127
HMGB2 (high mobility group box 2) | -0.19 | -1.02 | 0.167
GARIN3 (golgi associated RAB2 interactor family member 3) | 2.73 (active) | 1.16 | 2.9
WBP2NL (WBP2 N-terminal like) | -0.0173 | -0.00689 | -0.276
RRM2B | 1.97 | 1.77 | -0.564
MIF4GD (MIF4G domain containing) | -0.339 | -0.514 | -0.297
TCEAL8 (transcription elongation factor A like 8) | 0.14 | 0.743 | 0.574
CKMT1B (creatine kinase, mitochondrial 1B) | -0.251 | 0.281 | 1.81
KCNG1 | 0.36 | 0.361 | 0.422

The list goes on (3 carried over from the part before).
target gene | robust z-score, replicate 1 | robust z-score, replicate 2 | robust z-score, replicate 3
TCEAL8 (transcription elongation factor A like 8) | 0.14 | 0.743 | 0.574
CKMT1B (creatine kinase, mitochondrial 1B) | -0.251 | 0.281 | 1.81
KCNG1 | 0.36 | 0.361 | 0.422
PRSS37 (serine protease 37) | 2.73 (active) | 1.47 | 2.48
KCNA10 (potassium voltage-gated channel subfamily A member 10) | -0.174 | 0.666 | -0.636
GDA (guanine deaminase) | -0.165 | -0.171 | -0.383
SOX5 (SRY-box transcription factor 5) | 1.56 | 1.56 | 0.744
FOSL1 (FOS like 1, AP-1 transcription factor subunit) | 0.14 | -0.195 | -0.108
NHLH1 (nescient helix-loop-helix 1) | 0.289 | 0.0729 | 0.093
TOM1 (target of myb1 membrane trafficking protein) | -0.287 | -0.0952 | 0.00439
GLIPR1L1 (GLIPR1 like 1) | 0.375 | 0.427 | 0.0215
LINC00654 (long independently transcribed non-coding RNA 654) | -0.367 | -1.17 | 0.316
GABRD (gamma-aminobutyric acid type A receptor subunit delta) | 0.378 | 0.161 | 0.688
RPP25 (ribonuclease P/MRP subunit p25) | -0.967 | -1.1 | -0.155
PTCRA (pre T cell antigen receptor alpha) | 0.128 | -0.124 | -0.0749
OR6K2 (olfactory receptor family 6 subfamily K member 2) | -0.919 | -0.67 | -0.73
NOCT (nocturnin) | -0.849 | -1.35 | -1.11
TSACC (TSSK6 activating cochaperone) | 0.248 | -0.225 | 0.394
S100A4 (S100 calcium binding protein A4) | 1.56 | 2.06 | 1.53
PHYH (phytanoyl-CoA 2-hydroxylase) | -0.485 | 0.64 | -0.00993
PIGV (phosphatidylinositol glycan anchor biosynthesis class V) | 0.873 | -1.37 | 0.466
ETV7 (ETS variant transcription factor 7) | 0.065 | 0.275 | 1.05
BID (BH3 interacting domain death agonist) | -1.09 | -0.927 | -1.04
LOC100131554 | -1.34 | -1.98 | -1.44
BTG1 (BTG anti-proliferation factor 1) | -0.362 | 0.291 | -0.547
LOC400669 (retired record) | -1.6 | -1.73 | -1.61
RTN2 (reticulon 2) | 0.455 | -0.444 | -0.376
PAIP1 (poly(A) binding protein interacting protein 1) | 2.72 | 1.54 | 0.655
PHF2 (PHD finger protein 2) | -0.0382 | -0.0907 | -1.08
C5orf15 (chromosome 5 open reading frame 15) | 0.46 | 0.827 | 0.69
RIC8A (RIC8 guanine nucleotide exchange factor A) | 1.16 | 0.309 | 0.252
KXD1 (KxDL motif containing 1) | 0.813 | 0.725 | 0.744
CTIF (cap binding complex dependent translation initiation factor) | -0.387 | -1.3 | -1.38
NLRP9 (NLR family pyrin domain containing 9) | 2.53 (active) | 2.07 | 3.02
SPG21 (SPG21 abhydrolase domain containing, maspardin) | 0.134 | -0.34 | 0.694
EMSY (EMSY transcriptional repressor, BRCA2 interacting) | -2.36 | -1.74 | -1.5
IL2RG (interleukin 2 receptor subunit gamma) | 0.537 | 0.241 | 0.864
WDR93 (WD repeat domain 93) | -1.94 | -0.759 | -0.756
LOC440391 (retired record) | 0.34 | 0.0701 | 0.178
RPL21 (ribosomal protein L21) | -1.81 | -2.01 | -1.34
ENPP5 | -0.311 | -0.265 | -0.376
PHF8 (PHD finger protein 8) | -0.722 | -0.804 | 0.129
GLT8D2 (glycosyltransferase 8 domain containing 2) | -0.118 | -0.229 | -0.362
